Our source for the binding signal values is PMC7819943, “Rice protein-binding microarrays: a tool to detect cis-acting elements near promoter regions in rice”.

By UniProt entry, the sequences of proteins in these tests, tags left out.
UniProt Q0JBA9, entry or part of it: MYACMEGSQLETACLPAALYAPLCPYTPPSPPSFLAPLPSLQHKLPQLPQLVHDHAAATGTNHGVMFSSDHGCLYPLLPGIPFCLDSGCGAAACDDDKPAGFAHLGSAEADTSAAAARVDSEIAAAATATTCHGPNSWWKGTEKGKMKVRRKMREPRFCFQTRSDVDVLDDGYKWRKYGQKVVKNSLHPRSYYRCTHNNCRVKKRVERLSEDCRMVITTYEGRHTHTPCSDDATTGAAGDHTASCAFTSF

This is one part of the list.

This assay has as its target OsWRKY34 (Oryza sativa, UniProt Q0JBA9 1-250). The assay is described as follows: protein-binding microarray (RPBM); PBS, 2% BSA, 51.3 ng/ul salmon testes DNA, 50 uM zinc acetate, 200 nM TF, 25 C, 1 h; high values mean tight binding. To be noted: protein: recombinant; tags: N-terminal polyhistidine and DsRed monomer fusion (pET32a); label: CyDye5-dUTP incorporated in the synthesized complementary strand; 3' TTTTT single-stranded linker to array surface; dsDNA, one strand shown. The method in brief: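 Binding signal here means per-feature fluorescence intensity in arbitrary units. The values were read on an Axon 4000B scanner after a custom Agilent array, double-stranded by primer extension with Cy5-dUTP, was incubated with 200 nM protein at 25 °C for 1 h in PBS with 2% BSA, salmon testes DNA and 50 µM zinc acetate, then washed. The proteins were transcription factors with an N-terminal polyhistidine tag and DsRed, expressed in E. coli BL21-CodonPlus and purified on Ni–NTA.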
Turning to “CTCTCTCGAGTCTCGAAGAAGACACACACTATTCTCTCTTCGGAGTCACCTAGTGCAG”, the binding signal is 9360 fluorescence intensity (a.u.).

In the case of “GAAGCGCCGCCGCCGCGTTCACCGTTCGTCCGTTCCGCTCCGGAGTCACCTAGTGCAG”, the binding signal is 8080 fluorescence intensity (a.u.).

Regarding “CTCTATCTCATCCCAGGGGCAATCTCGTAAATTTACCCGACGGAGTCACCTAGTGCAG”, the binding signal was 9000 fluorescence intensity (a.u.).

On to “ATAACATCATTTTCTCCTCTCTTGTTTTGAATTTTATTTTCGGAGTCACCTAGTGCAG”, for which the binding signal is 8640 fluorescence intensity (a.u.).

“TTTTTAACATTGGGATGCTTGTCCATTGTTTTTTTCTTTTCGGAGTCACCTAGTGCAG”: the binding signal is 8040 fluorescence intensity (a.u.).

“AAATGAGCTAAGTTTGACTTTTTCAAAATATATTAATAGTCGGAGTCACCTAGTGCAG”: the binding signal is 15400 fluorescence intensity (a.u.).

“CATGGGCTAATGTCCTTTTTTTATATATTTTTTTTGCCCTCGGAGTCACCTAGTGCAG”: the binding signal was 8990 fluorescence intensity (a.u.).

In the case of “AACCAAACAACCGTTGTCTTGGCACAGCTGTCGCAACCTGCGGAGTCACCTAGTGCAG”, the binding signal was 8200 fluorescence intensity (a.u.).

Take “AGGATGGGGATAGGGTTGATTTGTAATAGGGGTATTTTGGCGGAGTCACCTAGTGCAG”: the binding signal was 15000 fluorescence intensity (a.u.).

On to “TTTTTTCTTTCATCTCTCTCGTTTGCCACACGTCCTCTCTCGGAGTCACCTAGTGCAG”, for which the binding signal is 12000 fluorescence intensity (a.u.).

Turning to “TCCACTCTCTCTATATCTTGTGTGGCGCACTTGAAGCTTACGGAGTCACCTAGTGCAG”, the binding signal is 8890 fluorescence intensity (a.u.).

Take “AAGGGAGCAGCATTTTCCGGCCGTGTTTAGTTCCAAAGTTCGGAGTCACCTAGTGCAG”: the binding signal was 9810 fluorescence intensity (a.u.).

As to “GTGTCTTGGTGGTTGTTGTCACTTGAGAGCGGTTCAATTCCGGAGTCACCTAGTGCAG”, the binding signal was 11000 fluorescence intensity (a.u.).

Regarding “CAATCTTGCAGCTTTTCATCTCTTGTTCCTCCTAGATTTTCGGAGTCACCTAGTGCAG”, the binding signal is 8240 fluorescence intensity (a.u.).

In the case of “GCGAAACATCGTGGGTTTTTTTCTTGCCGGAGGAGGGGCACGGAGTCACCTAGTGCAG”, the binding signal was 11300 fluorescence intensity (a.u.).

Regarding “TGCACACTCCATGTTGCCCGATCGCGAAGTACTATAATAACGGAGTCACCTAGTGCAG”, the binding signal was 8480 fluorescence intensity (a.u.).

Turning to “ACCACAACCTTAGTTTTGTTTGTCATATCATCTCTGTTACCGGAGTCACCTAGTGCAG”, the binding signal is 10300 fluorescence intensity (a.u.).

With “CCCGTTTTCTCAGCCCTAGTCATCCCCACTTGCCCGGATCCGGAGTCACCTAGTGCAG”, the binding signal was 9080 fluorescence intensity (a.u.).

Regarding “TCGCCACTGCCGCCGCTCCCGACCGCCGCCGCCGCTCTGGCGGAGTCACCTAGTGCAG”, the binding signal is 10400 fluorescence intensity (a.u.).

With “TCTGAGTTACTTCCAAGTTGACTAGTTACCTCTTACTACCCGGAGTCACCTAGTGCAG”, the binding signal is 8220 fluorescence intensity (a.u.).

As to “AGGGGAGGTAGGTAAGAAGATTGAACAGTGGAGGGTTGTACGGAGTCACCTAGTGCAG”, the binding signal was 9840 fluorescence intensity (a.u.).

On to “TCTTTCTTTTTTATACCTTTTTTCTCTTTAACTTATCCTCCGGAGTCACCTAGTGCAG”, for which the binding signal was 9650 fluorescence intensity (a.u.).

As for “ACGAGTCCGTTTCTAGGGTTAGGGTTAGTGGCGGCGGCGGCGGAGTCACCTAGTGCAG”, the binding signal was 8580 fluorescence intensity (a.u.).

On to “CGGTCAAACGTTGGGCACGGATATCCACGGCTACACTTATCGGAGTCACCTAGTGCAG”, for which the binding signal is 9270 fluorescence intensity (a.u.).

As to “TTCCATTTCTTCCATCCGTCGCCGGGGCTCCCGCTCCTCTCGGAGTCACCTAGTGCAG”, the binding signal was 8470 fluorescence intensity (a.u.).

On to “TATATATGGGGTGTGTGTGTGTGTGTGATGGGTTAATCGACGGAGTCACCTAGTGCAG”, for which the binding signal is 11200 fluorescence intensity (a.u.).

For the sequence “TTATATGCGCTCCTTCACATTCTTCCATGCTCCATATAGCCGGAGTCACCTAGTGCAG”, the binding signal is 8460 fluorescence intensity (a.u.).

On to “CGGCTCGATCGCAACTTCACATCGCGCATCCACTCCACACCGGAGTCACCTAGTGCAG”, for which the binding signal is 9300 fluorescence intensity (a.u.).

For “ACAGTGGAGACCCGGCCCCTTCAGTTGCCACTTGCCAGACCGGAGTCACCTAGTGCAG”, the binding signal is 8630 fluorescence intensity (a.u.).

For the sequence “GTGCTGTGATTGGCCGCGCGGGATTTCCTGGGCGGGCGGGCGGAGTCACCTAGTGCAG”, the binding signal is 15500 fluorescence intensity (a.u.).

Take “GGTAGTGGTGCCGGCCTTTTTATCCTGGCACTTGGTGCTGCGGAGTCACCTAGTGCAG”: the binding signal was 8490 fluorescence intensity (a.u.).

Regarding “GAAAGCCTCCATTGCCAGTTTCTTCACCTGCTTTGCTTAACGGAGTCACCTAGTGCAG”, the binding signal was 11400 fluorescence intensity (a.u.).

“CCCGTTCTCGCGCCCATCGATCCACCCCACCAAAACCCCACGGAGTCACCTAGTGCAG”: the binding signal was 8790 fluorescence intensity (a.u.).

Regarding “GCCCGTCAGCCCAAAAGTTGACGACTTCCCGTCGCGCTAGCGGAGTCACCTAGTGCAG”, the binding signal is 8160 fluorescence intensity (a.u.).

On to “CATTTCATCGAACACCTTGCAATCACCCTCTCACCACCGCCGGAGTCACCTAGTGCAG”, for which the binding signal is 9400 fluorescence intensity (a.u.).

Take “CCCAAAACGGCCTCGTCTCACCTTCTCTCTCGCACCCGCACGGAGTCACCTAGTGCAG”: the binding signal is 9030 fluorescence intensity (a.u.).

On to “TATTGTCTGGGGTTTGCTTATTGGCTTTTCAGGCCATGTCCGGAGTCACCTAGTGCAG”, for which the binding signal was 9320 fluorescence intensity (a.u.).

Take “GCTCCAATAGGAAGCGAGTAAATGACACACAACAAGTTACCGGAGTCACCTAGTGCAG”: the binding signal is 13600 fluorescence intensity (a.u.).

On to “TGTCTTAATTTCGTGGAAGGCCATAGCGGAGAGATCAAAACGGAGTCACCTAGTGCAG”, for which the binding signal was 17400 fluorescence intensity (a.u.).

On to “ACGGTCGATTCCCTCTGCCTGCCCTCTGCTTTACTTGACCCGGAGTCACCTAGTGCAG”, for which the binding signal was 9870 fluorescence intensity (a.u.).

On to “TTGGCTGATGTCTATTGTTGAATGTCAGAGCTGCTTTTCGCGGAGTCACCTAGTGCAG”, for which the binding signal was 9120 fluorescence intensity (a.u.).

With “TCTATCGCTTTACTCTCTCTGTCCCTGGCTTTCTTCGTCTCGGAGTCACCTAGTGCAG”, the binding signal is 13400 fluorescence intensity (a.u.).
